From patent US20150355172A1
These are yes or no findings as the source states them, for the method shown. Binding can be weak; no strength is given. Tags and fused reporters may be left off the sequences shown. Values belong to the binder of their own block, whether it stands above or below them.

What was measured:
[1] = molecular target: auto-oligo-ADP-ribosylated PARP1 protein (less than 10 ADP-ribose units) (human); assay: dot blot and Western blot, fusion at 10 ng/ul, goat anti-rabbit IgG HRP detection
[2] = molecular target: auto-poly-ADP-ribosylated PARP1 protein (human); assay: as above

binding [1]: binds
binding [2]: binds
B1: Macro(AF1521)-Fc (AF1521 macrodomain-Fc fusion) (Fc fusion)
chain: MGHHHHHHHHHHSSGHIDDDDKHMWSHPQFEKMERRTLIMEVLFEAKVGDITLKLAQGDITQYPAKAIVNAANKRLEHGGGVAYAIAKACAGDAGLYTEISKKAMREQFGRDYIDHGEVVVTPAMNLEERGIKYVFHTVGPICSGMWSEELKEKLYKAFLGPLEKAEEMGVESIAFPAVSAGIYGCDLEKVVETFLEAVKNFKGSAVKEVALVIYDRKSAEVALKVFERSLGSTGSSSKPTCPPPELLGGPSVFIFPPKPKDTLMISRTPEVTCVVVDVSQDDPEVQFTWYINNEQVRTARPPLREQQFNSTIRVVSTLPIAHQDWLRGKEFKCKVHNKALPAPIEKTISKARGQPLEPKVYTMGPPREELSSRSVSLTCMINGFYPSDISVEWEKNGKAEDNYKTTPAVLDSDGSYFLYSKLSVPTSEWQRGDVFTCSVMHEALHNHYTQKSISRSPGK

binding [2]: binds
B2: Macro(mH2A1.1)-Fc (macroH2A1.1 macrodomain-Fc fusion) (Fc fusion)
chain: MGHHHHHHHHHHSSGHIDDDDKHMGEVSKAASADSTTEGTPADGFTVLSTKSLFLGQKLQVVQADIASIDSDAVVHPTNTDFYIGGEVGNTLEKKGGKEFVEAVLELRKKNGPLEVAGAAVSAGHGLPAKFVIHCNSPVWGADKCEELLEKTVKNCLALADDKKLKSIAFPSIGSGRNGFPKQTAAQLILKAISSYFVSTMSSSIKTVYFVLFDSESIGIYVQEMAKLDANLDGSTGSSSKPTCPPPELLGGPSVFIFPPKPKDTLMISRTPEVTCVVVDVSQDDPEVQFTWYINNEQVRTARPPLREQQFNSTIRVVSTLPIAHQDWLRGKEFKCKVHNKALPAPIEKTISKARGQPLEPKVYTMGPPREELSSRSVSLTCMINGFYPSDISVEWEKNGKAEDNYKTTPAVLDSDGSYFLYSKLSVPTSEWQRGDVFTCSVMHEALHNHYTQKSISRSPGK
